Laboratory results as given in US12049646B2, “SC-beta cells and compositions and methods for generating the same” (President and Fellows of Harvard College, priority 2013, dated 2024).
At least one compound was matched to its structure with a doubt left.

System: SC-β cells
Test: Insulin secretion of plated SC-β cells treated with anti-diabetic drugs in 2 and 20 mM glucose
Format: cell-based, human
Details: drug-treated versus control
Description: The inventors first tested whether SC-β cells could respond to existing anti-diabetic drugs from several different classes (FIG. 16B). LY2608204 is glucokinase activator in clinical trials while liraglutide, tolbutamide, and nateglinide are examples of GLP-1 agonists and secretagogues (sulfonylureas and meglitinides), respectively, that have been used clinically (Matschinsky, 2009; Modi, 2007; Vetere et al., 2014).

CCCCCCCCCCCCCCCC(=O)N[C@@H](CCC(=O)NCCCC[C@H](NC(=O)[C@H](C)NC(=O)[C@H](C)NC(=O)[C@H](CCC(N)=O)NC(=O)CNC(=O)[C@H](CCC(=O)O)NC(=O)[C@H](CC(C)C)NC(=O)[C@H](Cc1ccc(O)cc1)NC(=O)[C@H](CO)NC(=O)[C@H](CO)NC(=O)[C@@H](NC(=O)[C@H](CC(=O)O)NC(=O)[C@H](CO)NC(=O)[C@@H](NC(=O)[C@H](Cc1ccccc1)NC(=O)[C@@H](NC(=O)CNC(=O)[C@H](CCC(=O)O)NC(=O)[C@H](C)NC(=O)[C@@H](N)Cc1cnc[nH]1)[C@@H](C)O)[C@@H](C)O)C(C)C)C(=O)N[C@@H](CCC(=O)O)C(=O)N[C@@H](Cc1ccccc1)C(=O)N[C@H](C(=O)N[C@@H](C)C(=O)N[C@@H](Cc1c[nH]c2ccccc12)C(=O)N[C@@H](CC(C)C)C(=O)N[C@H](C(=O)N[C@@H](CCCNC(=N)N)C(=O)NCC(=O)N[C@@H](CCCNC(=N)N)C(=O)NCC(=O)O)C(C)C)[C@@H](C)CC)C(=O)O [liraglutide]
insulin secretion of SC-β cells following a glucose challenge: trend toward responding to treatment with these drugs by increasing insulin secretion
